Results are given in words; binding and its absence hold for the method and conditions named. Binding seen in cells or lysates may run through a third protein. Some entries that bind do so weakly or less than the wild type. Sequences can lack the tags named with a protein.
Target: T1, hexa-histidine-tagged, 35S-methionine-labeled chloroplast envelope quinone oxidoreductase homologue (ceQORH-(His)6) (UniProt Q9SV68)
T1 sequence (chain, 35S-methionine-labeled): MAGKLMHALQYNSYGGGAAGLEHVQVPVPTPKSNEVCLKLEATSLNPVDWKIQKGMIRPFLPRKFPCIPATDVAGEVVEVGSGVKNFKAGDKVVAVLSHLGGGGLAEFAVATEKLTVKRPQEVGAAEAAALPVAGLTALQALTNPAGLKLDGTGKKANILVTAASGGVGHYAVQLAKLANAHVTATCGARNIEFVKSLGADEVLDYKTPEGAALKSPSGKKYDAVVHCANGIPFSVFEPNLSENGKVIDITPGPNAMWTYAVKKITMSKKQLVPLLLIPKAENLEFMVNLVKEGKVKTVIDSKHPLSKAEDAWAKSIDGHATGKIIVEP
Test: pull-down; purified 35S-ceQORH-(His)6 incubated 15 min with isolated Arabidopsis chloroplasts at 0.1 mM Mg-GTP and 0.1 mM Mg-ATP; envelope membranes detergent-solubilized (2% Triton X100, 300 mM NaCl, 20 mM imidazole); import intermediate-associated proteins purified by Ni-NTA chromatography, separated by 1D or 2D SDS-PAGE, Coomassie-stained and identified by protein sequencing; only the target purified

Protein sequences, listed by entry. Tags and fused reporters are not part of them. Residues count along the entry.
UniProt Q9FI56, residues 39-929: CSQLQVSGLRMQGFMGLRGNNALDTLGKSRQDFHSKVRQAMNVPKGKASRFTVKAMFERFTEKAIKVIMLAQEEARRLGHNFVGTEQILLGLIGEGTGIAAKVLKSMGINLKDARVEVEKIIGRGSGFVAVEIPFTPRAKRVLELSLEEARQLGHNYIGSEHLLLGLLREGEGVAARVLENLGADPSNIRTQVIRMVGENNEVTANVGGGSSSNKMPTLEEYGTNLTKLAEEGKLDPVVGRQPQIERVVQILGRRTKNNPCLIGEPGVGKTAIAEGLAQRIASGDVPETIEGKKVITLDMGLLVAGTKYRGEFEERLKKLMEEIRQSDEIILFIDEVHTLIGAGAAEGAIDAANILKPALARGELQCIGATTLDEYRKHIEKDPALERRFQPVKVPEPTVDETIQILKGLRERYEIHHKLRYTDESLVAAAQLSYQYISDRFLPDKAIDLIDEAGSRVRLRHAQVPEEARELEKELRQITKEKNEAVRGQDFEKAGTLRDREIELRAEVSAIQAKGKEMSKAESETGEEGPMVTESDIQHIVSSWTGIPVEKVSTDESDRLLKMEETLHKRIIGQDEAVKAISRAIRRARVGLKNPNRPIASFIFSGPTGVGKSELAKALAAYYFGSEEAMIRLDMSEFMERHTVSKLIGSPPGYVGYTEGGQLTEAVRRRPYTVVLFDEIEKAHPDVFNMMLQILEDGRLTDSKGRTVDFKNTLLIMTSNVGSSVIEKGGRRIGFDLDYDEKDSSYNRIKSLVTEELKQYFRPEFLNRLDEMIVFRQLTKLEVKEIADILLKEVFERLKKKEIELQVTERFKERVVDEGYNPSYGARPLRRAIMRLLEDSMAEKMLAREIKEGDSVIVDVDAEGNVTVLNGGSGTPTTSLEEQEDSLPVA
UniProt Q9LUS2: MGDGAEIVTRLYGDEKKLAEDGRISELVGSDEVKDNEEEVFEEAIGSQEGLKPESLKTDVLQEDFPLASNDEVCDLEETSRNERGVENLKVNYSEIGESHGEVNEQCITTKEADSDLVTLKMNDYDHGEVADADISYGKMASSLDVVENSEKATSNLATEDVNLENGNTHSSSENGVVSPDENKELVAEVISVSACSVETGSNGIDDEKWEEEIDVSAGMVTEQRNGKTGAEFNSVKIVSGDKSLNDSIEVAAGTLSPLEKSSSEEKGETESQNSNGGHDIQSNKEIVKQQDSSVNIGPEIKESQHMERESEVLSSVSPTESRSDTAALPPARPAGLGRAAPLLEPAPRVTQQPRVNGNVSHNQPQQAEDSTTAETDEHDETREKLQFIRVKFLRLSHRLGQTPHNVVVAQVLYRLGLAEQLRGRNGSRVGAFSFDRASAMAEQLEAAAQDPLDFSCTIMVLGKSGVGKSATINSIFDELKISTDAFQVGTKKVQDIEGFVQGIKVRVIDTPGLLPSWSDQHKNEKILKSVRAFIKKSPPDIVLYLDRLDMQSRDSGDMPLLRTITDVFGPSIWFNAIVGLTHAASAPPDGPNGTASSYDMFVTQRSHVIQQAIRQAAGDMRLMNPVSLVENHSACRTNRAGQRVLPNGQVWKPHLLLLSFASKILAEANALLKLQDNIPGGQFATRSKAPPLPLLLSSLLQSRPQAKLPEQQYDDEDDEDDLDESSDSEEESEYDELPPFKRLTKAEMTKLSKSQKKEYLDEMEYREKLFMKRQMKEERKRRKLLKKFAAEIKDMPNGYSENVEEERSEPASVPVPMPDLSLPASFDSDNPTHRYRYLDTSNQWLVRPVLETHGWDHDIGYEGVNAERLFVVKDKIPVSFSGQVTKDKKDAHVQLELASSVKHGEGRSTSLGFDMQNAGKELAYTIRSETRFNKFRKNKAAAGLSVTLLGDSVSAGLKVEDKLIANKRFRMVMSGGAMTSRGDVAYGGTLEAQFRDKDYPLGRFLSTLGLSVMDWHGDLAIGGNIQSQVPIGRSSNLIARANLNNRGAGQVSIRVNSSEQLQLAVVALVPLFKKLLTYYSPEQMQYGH

binding | Substance
binds | HSP93-V (from UniProt Q9FI56 39-929)
binds | TOC120 (from UniProt Q9LUS2 1-1089)
